The other results are listed elsewhere or left out. Part of the spread comes from offsets between plates or batches.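 Hits were defined as a z-score below −3.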

The target of this assay is T1, YTHDF1 YTH domain (aa 365-554) (UniProt Q9BYJ9).
T1 sequence (whole entry): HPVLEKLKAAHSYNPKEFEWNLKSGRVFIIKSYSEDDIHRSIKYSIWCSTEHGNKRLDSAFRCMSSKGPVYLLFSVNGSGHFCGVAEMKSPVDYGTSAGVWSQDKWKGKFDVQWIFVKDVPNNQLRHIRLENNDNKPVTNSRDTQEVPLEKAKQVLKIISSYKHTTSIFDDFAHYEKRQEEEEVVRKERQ
The experiment in a line: tryptophan fluorescence intensity z-score (mean); higher = higher fluorescence, less quenching (negative = binding / quenching). Conditions: 10 µM.
As for `COc1cc(C(=O)N2CCOCC2)cc(OC)c1OC` (plate: M 9-10), the “tryptophan fluorescence intensity z-score” value is inactive: 0.286.
The result for `CC(=O)OCC(=O)[C@@]1(O)CC[C@H]2[C@@H]3CCC4=CC(=O)CC[C@]4(C)[C@H]3C(=O)C[C@@]21C` (plate: M 1-2) reads inactive: 0.239; that for `CCCCCCCCCCCCCc1ccco1` (plate: M 21-22), inactive: 0.276; that for `OC[C@@H](O)[C@@H](O)[C@H](O)[C@@H](O)CO` (plate: M 1-2), inactive: 0.665.
On to `COc1cc(O)c(C(C)=O)c(OC)c1` (plate: M 15-16), for which the “tryptophan fluorescence intensity z-score” value is inactive: -0.013.
For `CC(c1cc2ccccc2s1)N(O)C(N)=O` (stereo not drawn) (plate: M 11-12), the “tryptophan fluorescence intensity z-score” value is inactive: 0.64.
Then `C[C@@H]1C(=O)O[C@H]2C[C@@]34[C@H]5C[C@@H](C(C)(C)C)[C@]36[C@@H](OC(=O)[C@@H]6O)O[C@@]4(C(=O)O5)[C@]21O` (plate: M 17-18), with inactive: 0.756.
Then `O=C(O)c1cc(O)c2c(c1)[C@H]([C@H]1c3cc(C(=O)O)cc(O)c3C(=O)c3c(O[C@@H]4O[C@H](CO)[C@@H](O)[C@H](O)[C@H]4O)cccc31)c1cccc(O[C@@H]3O[C@H](CO)[C@@H](O)[C@H](O)[C@H]3O)c1C2=O` (plate: M 9-10), with inactive: -0.923.
The result for `CCC(=O)O[C@H]1[C@H](O[C@@H]2[C@@H](C)[C@H](O[C@H]3C[C@@](C)(OC)[C@@H](O)[C@H](C)O3)[C@@H](C)C(=O)O[C@H](CC)[C@@](C)(O)[C@H](O)[C@@H](C)C(=O)[C@H](C)C[C@@]2(C)O)O[C@H](C)C[C@@H]1N(C)C` (plate: M 7-8) reads inactive: -0.599.
As to `Nc1ncnc2c1ncn2[C@@H]1O[C@H](COP(=O)(O)O)[C@@H](O)[C@H]1O` (plate: M 5-6), the “tryptophan fluorescence intensity z-score” value is inactive: 0.138.
The result for `CC1=CC(=O)CC(C)(C)C1(O)/C=C/C(C)=C\C(=O)O` (mixture of isomers) [ABSCISICACID(cis,trans;+/-)] (plate: M 19-20) reads inactive: 0.548; that for `NC(=O)c1ncn([C@@H]2O[C@H](CO)[C@@H](O)[C@H]2O)c1N` (plate: M 23-24), inactive: 0.074.
Regarding `O=c1[nH]c(=O)n([C@H]2C[C@H](O)[C@@H](CO)O2)cc1F` (plate: M 7-8), the “tryptophan fluorescence intensity z-score” value is inactive: 0.574.
The result for `Nc1ccc(C(=O)Oc2ccccc2)c(O)c1` (plate: M 1-2) reads inactive: 0.595; that for `CC(=O)O[C@H]1CC[C@]2(C)[C@H]3CC=C4[C@@H]5CC(C)(C)CC[C@]5(C)CC[C@@]4(C)[C@]3(C)CC[C@H]2C1(C)C` [beta-AMYRINACETATE] (plate: M 13-14), inactive: -0.153.
The result for `COc1cc(/C=C/C(=O)O)ccc1O` (plate: M 17-18) reads inactive: -0.402; that for `NS(=O)(=O)c1cc2c(cc1Cl)NCNS2(=O)=O` (plate: M 3-4), inactive: -0.208; that for `CN(C)CCc1c[nH]c2ccc(C[C@H]3COC(=O)N3)cc12` (plate: M 9-10), inactive: 0.392.
With `CN(C)CCC=C1c2ccccc2C=Cc2ccccc21` (plate: M 7-8), the “tryptophan fluorescence intensity z-score” value is inactive: 0.109.
On to `C[n+]1cccc(C(=O)[O-])c1` (plate: M 17-18), for which the “tryptophan fluorescence intensity z-score” value was inactive: 0.095.
On to `O=S(=O)(O)c1cc(N=C=S)ccc1/C=C/c1ccc(N=C=S)cc1S(=O)(=O)O` (plate: M 23-24), for which the “tryptophan fluorescence intensity z-score” value was inactive: -1.3.
Then `O=C1c2c(O)cccc2Cc2cccc(O)c21` (plate: M 1-2), with inactive: 0.161.
The result for `CCN(CC)CCOC(=O)C1(C2CCCCC2)CCCCC1` (plate: M 1-2) reads inactive: 0.425; that for `O=c1cc(-c2ccccc2)oc2c(O)c(O)ccc12` (plate: M 15-16), inactive: -1.08.
Consider `CN(C)CCCN1c2ccccc2Sc2ccc(C(F)(F)F)cc21` (plate: M 7-8), for which the “tryptophan fluorescence intensity z-score” value is inactive: -0.132.
The result for `COc1ccc([C@@H]2CC(=O)c3c(O)cc(O)cc3O2)cc1O` (plate: M 17-18) reads inactive: 0.548; that for `CCCCCc1c2c(cc(O)c1C(=O)O)OC(=O)c1c(cc(OC)cc1C(=O)CCCC)O2` (plate: M 17-18), inactive: -0.123; that for `COC1=C[C@@H](C)[C@@H]2C[C@H]3OC(=O)C[C@H]4C(C)=C(OC)C(=O)[C@H]([C@@]2(C)C1=O)[C@@]34C` (plate: M 17-18), inactive: 0.356.
Then `C[N+]1(C)CCC(OC(=O)C(O)(c2ccccc2)C2CCCC2)C1` (stereo not drawn) (plate: M 13-14), with inactive: 0.29.
In the case of `CCCCCCCCCCCCCCCCCCOCC(O)CO` (stereo not drawn) (plate: M 19-20), the “tryptophan fluorescence intensity z-score” value was inactive: 0.633.
On to `COC(=O)c1cc(O)c(=O)c2c(O)c(O)ccc2c1` (plate: M 23-24), for which the “tryptophan fluorescence intensity z-score” value was inactive: -0.723.
The result for `N=C(NCCCCCCNC(=N)NC(=N)Nc1ccc(Cl)cc1)NC(=N)Nc1ccc(Cl)cc1` (plate: M 1-2) reads inactive: 0.613; that for `COc1c2occc2cc2ccc(=O)oc12` (plate: M 3-4), inactive: -0.253; that for `CC(=O)Oc1ccc2c(c1OC(C)=O)OCC1(O)Cc3c(cc(OC(C)=O)c(OC(C)=O)c3OC(C)=O)C21` (stereo not drawn) (plate: M 15-16), inactive: 0.34.
The result for `CC(=O)OCC(=O)[C@@]1(O)[C@@H](C)C[C@H]2[C@@H]3CCC4=CC(=O)C=C[C@]4(C)[C@@]3(F)[C@@H](O)C[C@@]21C` (plate: M 11-12) reads inactive: -0.514.
Then `O=C(O)c1cn(-c2ccc(F)cc2)c2cc(N3CCNCC3)c(F)cc2c1=O` (plate: M 9-10), with inactive: -0.261; and `CC[C@H](/C=C/[C@@H](C)[C@H]1CC[C@H]2[C@@H]3CC=C4C[C@@H](O)CC[C@]4(C)[C@H]3CC[C@]12C)C(C)C` (plate: M 21-22), with inactive: 0.119; and `CN1CCN(CC/C=C2/c3ccccc3Sc3ccc(S(=O)(=O)N(C)C)cc32)CC1` (plate: M 5-6), with inactive: -0.501.
Regarding `C[C@H]1O[C@H](O[C@H]2[C@H](O)[C@@H](O)[C@@H](O[C@H]3[C@H](O)[C@@H](O)C(O)O[C@@H]3CO)O[C@@H]2CO)[C@H](O)[C@@H](O)[C@@H]1N[C@H]1C=C(CO)[C@@H](O)[C@H](O)[C@H]1O` (stereo partly drawn) (plate: M 9-10), the “tryptophan fluorescence intensity z-score” value is inactive: -0.0167.
The result for `CC(C)(CO)[C@@H](O)C(=O)NCCC(=O)NCCSSCCNC(=O)CCNC(=O)[C@H](O)C(C)(C)CO` (plate: M 21-22) reads inactive: 0.86; that for `COc1ccc(-c2cc(=O)c3ccccc3o2)cc1` (plate: M 15-16), inactive: 0.143; that for `N=C(N)NC(=N)NCCc1ccccc1` (plate: M 11-12), inactive: 0.372.
With `COc1ccc2c(=O)c(OC)c(-c3ccccc3)oc2c1` (plate: M 17-18), the “tryptophan fluorescence intensity z-score” value was inactive: -0.905.
Regarding `CN1CCC(=C2c3ccccc3C=Cc3ccccc32)CC1` (plate: M 11-12), the “tryptophan fluorescence intensity z-score” value is inactive: -0.144.
The result for `CC(Cc1cccc(C(F)(F)F)c1)NCCOC(=O)c1ccccc1` (stereo not drawn) (plate: M 23-24) reads inactive: 0.252; that for `CC(=O)S[C@@H]1CC2=CC(=O)CC[C@]2(C)[C@H]2CC[C@@]3(C)[C@@H](CC[C@@]34CCC(=O)O4)[C@H]12` (plate: M 5-6), inactive: -0.31; that for `CCCc1cc(C(N)=S)ccn1` (plate: M 23-24), inactive: -0.219.
Then `NNCCc1ccccc1` (plate: M 3-4), with inactive: -0.184; and `C=C1CC[C@H](O)C/C1=C/C=C1\CCC[C@]2(C)[C@@H]([C@H](C)CCCC(C)C)CC[C@@H]12` (plate: M 5-6), with inactive: -0.157.
Then `CC(=O)OCC(=O)[C@@]1(O)CC[C@H]2[C@@H]3CCC4=CC(=O)CC[C@]4(C)[C@@]3(F)[C@@H](O)C[C@@]21C` (plate: M 3-4), with inactive: -0.107.
With `O=C(O)CCCCCCCC(=O)O` (plate: M 5-6), the “tryptophan fluorescence intensity z-score” value is inactive: -0.128.
Then `CC(=O)O[C@@H]1C[C@H]2C(C)(C)C(=O)CC[C@]2(C)[C@H]2CC[C@@]3(C)[C@H](c4ccoc4)OC(=O)[C@H]4O[C@]43[C@@]21C` (plate: M 13-14), with inactive: 1.05.
As to `CC12CCC3C(CC3(C)C)C(C)(CCC1=O)O2` (stereo not drawn) (plate: M 21-22), the “tryptophan fluorescence intensity z-score” value is inactive: 0.377.
For `CC(=O)O[C@@H]1C[C@H]2C(C)(C)[C@@H](O)CC[C@]2(C)[C@H]2CC[C@@]3(C)[C@H](c4ccoc4)OC(=O)[C@H]4O[C@]43[C@@]21C` [beta-DIHYDROGEDUNOL] (plate: M 13-14), the “tryptophan fluorescence intensity z-score” value was inactive: -0.144.
As for `CCCCN(CCCC)CCCOC(=O)c1ccc(N)cc1` (plate: M 9-10), the “tryptophan fluorescence intensity z-score” value is inactive: -0.182.
The result for `Cc1ccc(C(=O)c2ccc(CC(=O)O)n2C)cc1` (plate: M 5-6) reads inactive: -0.187; that for `FC(F)(F)C(Cl)Br` (stereo not drawn) (plate: M 13-14), inactive: 1.17; that for `O=C(O)CN1C(=O)c2cccc3cccc(c23)C1=O` (plate: M 7-8), inactive: -0.649.
`CC(=O)OCC(=O)[C@@]1(O)CC[C@H]2[C@@H]3CCC4=CC(=O)CC[C@]4(C)[C@H]3[C@@H](O)C[C@@]21C` (plate: M 3-4): the “tryptophan fluorescence intensity z-score” value was inactive: 0.0264.
As to `Cc1ncc(C[n+]2csc(CCO)c2C)c(N)n1` (plate: M 11-12), the “tryptophan fluorescence intensity z-score” value was inactive: -0.2.
The result for `CC(C)c1c(C(=O)Nc2ccccc2)c(-c2ccccc2)c(-c2ccc(F)cc2)n1CC[C@@H](O)C[C@@H](O)CC(=O)O` (plate: M 9-10) reads inactive: -0.269; that for `NS(=O)(=O)c1cc(C2(O)NC(=O)c3ccccc32)ccc1Cl` (stereo not drawn) (plate: M 1-2), inactive: 0.594.
The result for `CCCCCCCCCCCCCCCC(=O)OC/C=C(C)/C=C/C=C(C)/C=C/C1=C(C)CCCC1(C)C` (plate: M 9-10) reads inactive: -0.0302.

(Values after the supplement of paper PMC9578143, “Small-Molecule Ebselen Binds to YTHDF Proteins Interfering with the Recognition of N^6-Methyladenosine-Modified RNAs” (ACS Pharmacology & Translational Science, 2022).)
